Results are given in words; binding and its absence hold for the method and conditions named. Some binding calls cover weakened binding; strength is not graded here.

Test [1] addresses T1, Mouse IL-18Rα ectodomain (amino acids 19-329) (mouse) (UniProt Q61098).
T1 sequence (chain, biotin on the AviTag (BirA ligase)): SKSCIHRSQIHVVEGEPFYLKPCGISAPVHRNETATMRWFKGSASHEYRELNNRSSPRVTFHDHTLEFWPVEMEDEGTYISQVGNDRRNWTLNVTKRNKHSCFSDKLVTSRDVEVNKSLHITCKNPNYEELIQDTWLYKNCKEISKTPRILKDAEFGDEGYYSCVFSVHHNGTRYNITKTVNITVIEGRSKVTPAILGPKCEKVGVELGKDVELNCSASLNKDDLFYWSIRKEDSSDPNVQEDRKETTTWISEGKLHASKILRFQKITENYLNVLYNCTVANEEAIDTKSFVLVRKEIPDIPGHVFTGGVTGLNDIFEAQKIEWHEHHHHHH
The test is described as follows: on-yeast binding isotherm, flow cytometry (FIG. 11A). On the technique in general: In flow cytometry, cells or beads pass a laser one at a time.

The target in test [2] is T1, Mouse IL-18Rα ectodomain (amino acids 19-329) (mouse). The test is described as follows: yeast binding isotherms and SPR.

B1: mA7 (ligand)
chain: YFGRLHCTTAVIRNINDQVLFVDKRQPVFEDMTDIDQSASEPQTRLIIYAYGDNRVRGKAVTLSVKDSKMSTLSCKNKIISFEEMDPPENIDDIQSDLIFFQKRVPGHNKMEFESSLYEGHFLACQKEDDAFKLILKKKDENGDKSVMFTLTNLHQS
notes: Murine DR-IL-18 variant; recombinant with C-terminal hexahistidine tag in SPR; fusion and tag not written
Regarding B1, the binding result in test [1] and in test [2] was “binds” in each case.

B2: mB1 (ligand)
chain: HFGRLHCTTAVIRNINDQVLFVDKRQPVFEDMTDIDQSASEPQTRLIIYGYADSDARAKAVTLSVKDSKMSTLSCKNKIISFEEMDPPENIDDIQSDLIFFQKSVPGHNKMEFESSLYEGHFLACQKEDDAFKLILKKKDENGDKSVMFTVTNLHQS
As to B2, the binding entry in test [1] and in test [2] was “binds” in each case.

B3: mCS1 (ligand)
chain: NFGRLHCTTAVIRNINDQVLFVDKRQPVFEDMTDIDQSASEPQTRLIIYGYADSRVRGKAVTLSVKDSKMSTLSCKNKIISFEEMDPPENIDDIQSDLIFFQKRVPGHNKMEFESSLYEGHFLACQKEDDAFKLILKKKDENGDKSVMFTLTNLHQS
Turning to B3, the binding result in test [1] and in test [2] was “binds” each time.

B4: mC1 (ligand)
chain: NFGRLHCTTAVIRNINDQVLFVDKRQPVFEDMTDIDQSASEPQTRLIIYAYVDRRLRGKAVTLSVKDSKMSTLSCKNKIISFEEMDPPENIDDIQSDLIFFQKKVPGHNKMEFESSLYEGHFLACQKEDDAFKLILKKKDENGDKSVMFTLTNLHQS
notes: as for B1
B4: the binding result in test [1] and in test [2] was “binds” each time.

B5: mCS2 (ligand)
chain: HFGRLHCTTAVIRNINDQVLFVDKRQPVFEDMTDIDQSASEPQTRLIIYAYGDSRARGKAVTLSVKDSKMSTLSCKNKIISFEEMDPPENIDDIQSDLIFFQKRVPGHNKMEFESSLYEGHFLACQKEDDAFKLILKKKDENGDKSVMFTLTNLHQS
notes: Murine DR-IL-18 consensus variant; recombinant with C-terminal hexahistidine tag in SPR; fusion and tag not written
As for B5, the binding entry in test [1] and in test [2] was “binds” throughout.

B6: mE8 (ligand)
chain: NFGRLHCTTAVIRNINDQVLFVDKRQPVFEDMTDIDQSASEPQTRLIIYVYTDGRRRGKAVTLSVKDSKMSTLSCKNKIISFEEMDPPENIDDIQSDLIFFQKKVPGHDKMEFESSLYEGHFLACQKEDDAFKLILKKKDENGDKSVMFTLTNLHQS
notes: as for B1
On to B6, for which the binding entry in test [1] and in test [2] was “binds” each time.

(Values after patent US20230321192A1 (published 2023).)
